Measured values as given in article PMC8920379, “The discovery of berberine erythrocyte-hemoglobin self-assembly delivery system: a neglected carrier underlying its pharmacokinetics” (Drug Delivery, 2022).

Tested on: 30% erythrocytes
Assay: Transmission electron microscopy of BBR-loaded erythrocytes
Type: cell-based, rats
Conditions: 30% erythrocytes treated with 0.5 M BBR, 37 °C, 2 h, vs PBS control

## COc1ccc2cc3[n+](cc2c1OC)CCc1cc2c(cc1-3)OCO2 [BBR, Berberine]
  morphology of erythrocytes by electron microscopy: spheroidal with several intracellular vesicles; also recorded: spheroidal with litter hemolysis and several discrete vacuoles

Entries after “also recorded” stand apart in the source; their conditions may differ.
